For the assay, the target named is GST-fused domain H of Syn2a (mouse). Kind of assay: affinity purification with mass spectrometry; GST pull-down with GST-Syn2a-DomH followed by mass spectrometry; 108 proteins identified; input not stated; only the target purified.

No constants are given. Whether binding was seen depends on the method and setting. In cells and extracts the contact can be indirect. Here binding means that the protein was enriched with, or labelled near, the bait; the list need not be complete. Tags and fused reporters may be left off the sequences shown.

B1: Syngr3 (found in the GST-Syn2a-DomH pull-down by mass spectrometry) (protein, UniProt Q8R191 1-229)
chain: MEGASFGAGRAGAAFDPVSFARRPQTLLRVVSWVFSIAVFGPIVNEGYVNSDSGPELRCVFNGNAGACRFGVVLGLGAFIACVAFLLLDVRFQQISSVRDRRRAVLLDLGFSGVWSFLWFVGFCFLTNQWQRTTPGPGTAQAGDAARAAIAFSFFSILSWVALTVKALQRFRLGTDMSLFATDQLGTGAAQAYPGYPVGSGVEGTETYQSPPFTETLDTSSKGYQVPAY
For B1, the binding result was “binds”.

B2: Ras-related protein Rab3a (found in the GST-Syn2a-DomH pull-down by mass spectrometry) (protein, UniProt P63011 1-220)
chain: MASATDSRYGQKESSDQNFDYMFKILIIGNSSVGKTSFLFRYADDSFTPAFVSTVGIDFKVKTIYRNDKRIKLQIWDTAGQERYRTITTAYYRGAMGFILMYDITNEESFNAVQDWSTQIKTYSWDNAQVLLVGNKCDMEDERVVSSERGRQLADHLGFEFFEASAKDNINVKQTFERLVDVICEKMSESLDTADPAVTGAKQGPQLTDQQAPPHQDCAC
In the case of B2, the binding entry is listed as “binds”.

The values above are taken from paper PMC10866652.
